In PubChem BioAssay AID493014 (National Center for Advancing Translational Sciences (NCATS), 2011) one finds AC50 data, which are given here for 41 molecules.

This assay is described as follows: qHTS Assay to Find Inhibitors of Chronic Active B-Cell Receptor Signaling. To be noted: ABC-DLBCL IkBa-CBG/CBR reporter, luminescence ratio (green luciferase fused to IkBa over red control in TMD8 lymphoma cells), 4 h. A digest of the protocol:
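Doxycycline induced both beetle luciferases in TMD8 lymphoma cells; IKK-driven degradation limits the IkappaBalpha-fused green signal, while red luminescence normalises for cell number and nonspecific effects. Compounds tested up to 46 uM, 4 hrs.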
On the technique in general: Quantitative high-throughput screening tests each substance at several concentrations.

Setting [1] is: measured here: CBR red luminescence, cell number.
Where [2] appears, read: measured here: IkBa-CBG green luminescence.

Broadly, the AC50 is the concentration at which the activity in the assay is half-maximal.

The other results are listed elsewhere or left out. The main result of the screen is listed elsewhere. These columns were measured beside it and carry no call. Compounds called inactive in the main read-out are mostly missing here. Words in brackets tell the shape of the fitted curve; partial curves, single points and poor fits give uncertain potencies.

For the molecule `O=C(NNc1ccnc2cc(Cl)ccc12)C1CCCCC1`, the AC50 under setting [1] was 3.98 µM [rising, full curve].

As for `O=C(NCCCN1CCOCC1)c1sc2cc(F)ccc2c1Cl`, the AC50 under setting [1] was 0.355 µM [rising, full curve, poor fit].

As for `Cc1ccc(NC(=O)CN(C)C(=O)CSc2nc3ccccc3c(=O)n2Cc2ccco2)cc1`, under setting [1], the AC50 was 14.1 µM [falling, single point].

Turning to `CCN(CC)C(=O)c1ccc(COc2ccc(Cl)c(C)c2)o1`, the AC50 under setting [1] was 12.6 µM [rising, partial curve, poor fit].

Take `COC(=O)Nc1ccc(S(=O)(=O)N2CCCc3ccccc32)cc1`: the AC50 under setting [2] was 16.4 µM [falling, partial curve, poor fit].

As for `O=C(NNC1=NS(=O)(=O)c2ccccc21)c1cccc([N+](=O)[O-])c1`, under setting [1], the AC50 is 17.8 µM [falling, partial curve, poor fit].

Consider `COc1ccc(-n2c(SCc3nnc(-c4ccccc4)o3)nnc2-c2ccccc2)cc1`, for which the AC50 under setting [1] is 35.5 µM [rising, single point].

Regarding `Cc1ccc(NC(=O)C(=O)c2ccc(C)cc2)cc1`, the AC50 under setting [1] was 31.6 µM [falling, single point].

As to `Cc1nnc(SCC2=C(C(=O)O)N3C(=O)C(NC(=O)Cn4nc(C(F)F)c(Cl)c4C)C3SC2)s1` (stereo not drawn), the half-maximal activity concentration (AC50) under setting [1] is 3.98 µM [falling, full curve, poor fit].

Regarding `CCn1nccc1C(=O)Nc1ccc(C(=O)OC(C)C)cc1`, under setting [1], the AC50 is 3.16 µM [rising, full curve, poor fit].

In the case of `O=C(Nc1cccc(S(=O)(=O)Nc2ccccc2Cl)c1)c1ccc(Cl)nc1`, the AC50 under setting [1] was 20.6 µM [falling, partial curve, poor fit].

As to `CCC(CC)=NNC(=O)c1ccccc1OCc1ccc(F)cc1`, the half-maximal activity concentration (AC50) under setting [1] was 8.2 µM [falling, partial curve].

On to `CC(=O)c1ccc(S(=O)(=O)N2CCN(C(=O)c3ccc(-n4cncn4)c([N+](=O)[O-])c3)CC2)cc1`, for which, under setting [1], the AC50 is 29.1 µM [falling, single point].

Turning to `CCC(CO)Nc1ncnc2c1cnn2-c1ccc(C)cc1` (stereo not drawn), the AC50 is, setting by setting: under setting [1], 11.2 µM [falling, partial curve, poor fit]; under setting [2], 2.82 µM [rising, full curve, poor fit].

Consider `O=C(CN1C(=O)C2CC=CCC2C1=O)OCCN1C(=O)c2ccccc2C1=O` (stereo not drawn), for which, under setting [1], the AC50 is 11.2 µM [rising, partial curve].

Consider `Fc1ccc(-c2nc3ccccc3c3nc4ccccc4n23)cc1`, for which the concentration at half-maximal activity (AC50) under setting [1] was 29.1 µM [rising, single point].

In the case of `C=CCNc1nnc(Sc2ncccc2[N+](=O)[O-])s1`, the AC50 under setting [1] is 35.5 µM [falling, single point].

For `C/C=C/c1ccc(OCCCNC)c(OC)c1`, the half-maximal activity concentration (AC50) under setting [1] was 9.2 µM [falling, partial curve, poor fit].

For `CC1CC(C)CN(C(=O)c2nn(C)c3c2CSc2ccccc2-3)C1` (stereo not drawn), the AC50 under setting [2] is 14.1 µM [rising, partial curve, poor fit].

As for `O=C(CSc1ccccc1F)Nc1ccc(N2CCOCC2)cc1`, the AC50 under setting [1] was 23.1 µM [rising, single point].

On to `CC(C)(C)c1csc(NC2=NS(=O)(=O)c3ccccc32)n1`, for which the AC50 under setting [1] was 23.1 µM [falling, single point].

For the molecule `CCOC(=O)C1CCCN(C(=O)CCn2nc(-c3ccccc3)ccc2=O)C1` (stereo not drawn), under setting [1], the AC50 is 0.126 µM [falling, full curve, poor fit].

On to `O=C(Nc1ccc(NC(=O)C2CC2)nc1)c1cnccn1`, for which the AC50 under setting [1] is 22.4 µM [rising, partial curve, poor fit].

For `CCC(=O)NCCc1nc2cc(NC(=O)c3ccc(OC)cc3)ccc2n1C`, under setting [1], the half-maximal activity concentration (AC50) is 1.3 µM [falling, full curve].

`O=C(NCCOc1ccccc1)c1cncc(Br)c1`: the AC50 under setting [1] is 6.51 µM [rising, single point].

For the molecule `C=CCSC1=N/C(=C\c2ccc(C(=O)O)cc2)C(=O)S1`, the AC50 under setting [1] is 20 µM [falling, single point].

With `O=C(N/N=C/c1ccc(-c2ccccc2C(=O)O)o1)c1cccs1`, the AC50 under setting [1] was 8.2 µM [falling, partial curve].

Turning to `NS(=O)(=O)c1ccc(N/N=C2/CCCCC2C2CCCCC2)c([N+](=O)[O-])c1` (stereo not drawn), under setting [2], the concentration at half-maximal activity (AC50) is 29.1 µM [rising, single point].

Turning to `O=C(Cn1c(CC(=O)N2CCOCC2)nc2ccccc21)Nc1ccc2c(c1)OC(F)(F)O2`, the AC50 under setting [1] is 12.6 µM [falling, partial curve].

Turning to `CC1CCN(c2nnc(-c3ccccc3)c3ccccc23)CC1`, the AC50 under setting [1] is 1.26 µM [rising, full curve, poor fit].

`Cc1ccc(C)c(S(=O)(=O)NCC(c2ccco2)S(=O)(=O)c2ccc(F)cc2)c1` (stereo not drawn): under setting [1], the half-maximal activity concentration (AC50) was 7.94 µM [falling, partial curve].

For the molecule `O=C1C(C=Nc2ccc(F)cc2)=C(O)c2ccccc21`, the AC50 under setting [1] was 5.01 µM [falling, full curve].

As to `CCc1ccc(NC(=O)c2noc3c2CCc2ccccc2-3)cc1`, the AC50 under setting [1] was 6.51 µM [falling, single point].

With `O=C(NNc1cccc(Cl)n1)c1cccnc1Cl`, under setting [1], the half-maximal activity concentration (AC50) was 0.103 µM [rising, full curve, poor fit].

In the case of `O=C(Cc1cccs1)Nc1nnc(SCc2ccc(Br)cc2)s1`, under setting [1], the concentration at half-maximal activity (AC50) was 29.1 µM [rising, single point].

Turning to `CN(C=C1C(=O)CC(C)(C)CC1=O)CCN1CCNCC1`, the half-maximal activity concentration (AC50) under setting [1] was 32.6 µM [falling, single point].

For the molecule `O=c1c2ccccc2[nH]c(=S)n1CCc1ccccc1`, under setting [1], the AC50 is 0.146 µM [rising, full curve, poor fit].

Take `Cc1cccc(N2CCN(S(=O)(=O)c3cn(C)cn3)CC2)c1C`: the AC50 under setting [1] is 0.708 µM [rising, full curve, poor fit].

`CC(C)n1c(N2CCCC2)nc2c1c(=O)[nH]c(=O)n2C`: the concentration at half-maximal activity (AC50) under setting [1] is 7.08 µM [rising, partial curve, poor fit].

For the molecule `CN1C[C@H](C(=O)N[C@]2(C)O[C@@]3(O)[C@@H]4CCCN4C(=O)[C@H](Cc4ccccc4)N3C2=O)CC2c3cccc4[nH]cc(c34)C[C@H]21` (stereo partly drawn), under setting [1], the concentration at half-maximal activity (AC50) was 8.2 µM [falling, partial curve, poor fit].

Consider `COc1ccc(NC(=O)C(=O)NCC2CCCN2S(=O)(=O)c2ccc(C)cc2)cc1` (stereo not drawn), for which the AC50 is 1.84 µM [rising, full curve] under setting [1] and 1.16 µM [falling, full curve] under setting [2].
